Test results published in PubChem BioAssay AID504834 (National Center for Advancing Translational Sciences (NCATS), 2011).
The campaign covered roughly 320,000 compounds. About 22,000 (6.9%) were called active. The inconclusive results got no clear call from the source; some entries with a clear call stand among them for comparison. The call rests on the fitted dose curve; in most records, active means well fitted inhibition curve with a large enough effect; inconclusive means small, poorly fitted or top-dose-only effect, or another doubt; inactive means no such curve, though single readings can be large or run the other way. Potencies of inconclusive entries are doubtful fits and often do not repeat.

assay: Primary qHTS for delayed death inhibitors of the malarial parasite plastid, 96 hour incubation; conditions: P. falciparum luciferase reporter growth; series mostly up to 28.7 µM
Outline: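 Infected RBCs, 2% Hct / 0.05% parasitemia final; luciferase-reporter P. falciparum; cpd 96 h, 37 C, 5% CO2; luciferase detection reagent; luminescence.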
Potency means the concentration at half of the fitted maximal effect.

| SMILES | Potency |
| --- | --- |
| O=C(NNS(=O)(=O)c1ccc(F)cc1)c1cc(Cl)ccc1O | inconclusive: 11.7 µM [inhibitor, partial curve] |
| COC(=O)c1cn(CC(=O)Nc2ccc(F)cc2)c2ccccc12 | inactive |
| Cc1cc(NC(=O)c2c([N+](=O)[O-])cnn2C)no1 | inactive |
| COc1cccc(C(=O)COC(=O)c2ccc(NC(C)=O)cc2)c1 | inactive |
| O=C(Nc1nccs1)c1nc[nH]c1C(=O)NCc1ccccc1 | inconclusive: 5.22 µM [inhibitor, single point] |
| O=C(CSc1nnc(Cc2ccccc2)n1-c1ccccc1)NNC(=O)Cc1ccccc1 | inactive |
| CCOC(=O)C(=O)Nc1ccccc1C(N)=O | inactive |
| CCC(=O)c1cc2c(C)cc(=O)oc2c(C)c1O | inconclusive: 0.738 µM [inhibitor, partial curve, poor fit] |
| C=CC(=O)Nc1sc2c(c1C(N)=O)CCCC2 | inactive |
| CC(=Nc1ccccc1)C1=C(O)CC(C)(C)CC1=O | inconclusive: 1.85 µM [inhibitor, full curve, poor fit] |
| CCN(CC)CCN(C(=O)/C=C/c1cccs1)c1nc2ccc(C)cc2s1 | inconclusive: 18.5 µM [inhibitor, single point] |
| CCOC(=O)c1c(CN2CCCCC2)n(C)c2ccc(OC)c(S(=O)(=O)c3ccccc3)c12 | active: 7.38 µM |
| O=C(O)CCn1c(-c2ccccc2)cc2ccccc21 | inconclusive: 16.5 µM [inhibitor, partial curve, poor fit] |
| Cc1ccc(C(=O)Nc2nnc(-c3ccco3)o2)cc1C | inconclusive: 18.5 µM [inhibitor, single point] |
| CN(C)CCCN(C(=O)C1COc2ccccc2O1)c1nc2cc3c(cc2s1)OCO3 (stereo not drawn) | inactive |
| CC1(C)OC(C)(C)/C(=C/Nc2ccc(O)cc2)C1=O | inconclusive: 11.7 µM [inhibitor, single point] |
| COc1cc2cc(C(c3nnnn3C3CCCC3)N(C)C3CCCCC3)c(=O)[nH]c2cc1OC (stereo not drawn) | inconclusive: 16.5 µM [inhibitor, single point] |
| CC1(NC(=O)CC(c2ccccc2)(c2ccccc2)c2ccccc2)CCN(CCCc2ccccc2)C1=O (stereo not drawn) | inconclusive: 8.28 µM [inhibitor, single point] |
| NC(=O)CS(=O)C(c1ccccc1)c1ccccc1 (stereo not drawn) | active: 6.01 µM |
| O=C1C=C(N(CCO)CCO)C2(CCCCC2)O1 | inconclusive: 9.28 µM [inhibitor, partial curve] |
| COc1ccc(-c2ccc3c(c2)S(=O)(=O)c2cccc(C(=O)NC[C@@H]4CCCO4)c2C3=O)cc1OC | inconclusive: 9.28 µM [inhibitor, partial curve] |
| CC(=O)Nc1cccc(/C(C)=N/NC(=O)c2cc(-c3ccncc3)nc3ccccc23)c1 | inconclusive: 10.4 µM [inhibitor, partial curve] |
| CCOc1cc(-c2ccc(N)c(OCC)c2)ccc1N | inconclusive: 0.415 µM [inhibitor, full curve, poor fit] |
| O=C(CCC(=O)c1ccc(Oc2ccccc2)cc1)Nc1cccc(Cl)c1Cl | inconclusive: 9.28 µM [inhibitor, single point] |

Shown with bars between the fields: entries from further up.
SMILES | Potency
COc1cccc(C(=O)COC(=O)c2ccc(NC(C)=O)cc2)c1 | inactive
O=C(Nc1nccs1)c1nc[nH]c1C(=O)NCc1ccccc1 | inconclusive: 5.22 µM [inhibitor, single point]

Next records

| SMILES | Potency |
| --- | --- |
| COc1ccccc1NC(=O)CC1C(=O)Nc2ccccc2N1C(=O)c1ccccc1 (stereo not drawn) | inconclusive: 1.17 µM [inhibitor, full curve, poor fit] |
| COc1cc(-c2nc(-c3ccccc3)c(-c3cccs3)[nH]2)cc(OC)c1O | active: 1.85 µM |
| Cc1ccc(C(=O)N2CCc3cc4c(cc3C2C)OCCCO4)cc1 (stereo not drawn) | inconclusive: 10.4 µM [inhibitor, single point] |
| O=C(NNc1c2ccccc2nc2ccccc12)C(O)c1ccccc1 (stereo not drawn) | active: 0.415 µM |
| O=C(N/N=C/c1ccc(F)cc1)c1ccncc1 | inactive |
| Cc1cccc(NC(=S)NCc2ccc3c(c2)OCO3)c1C | inconclusive: 18.5 µM [inhibitor, single point] |
| O=C(CSc1nnc(CNC(=O)c2c(F)cccc2F)o1)NCC1CCCO1 (stereo not drawn) | inactive |
| CCc1nnc(NC(=O)c2ccc(F)c(S(=O)(=O)N3CCCCC3)c2)s1 | active: 11.7 µM |
| O=c1[nH]c2ccccc2cc1CN(c1ccccc1)S(=O)(=O)c1ccccc1 | inactive |
| CN(Cc1cccs1)CC(O)COCc1ccco1 (stereo not drawn) | inactive |
| Cc1nn(Cc2ccc(F)cc2)c(Cl)c1/C=N/NC(=O)c1ccccc1 | inconclusive: 18.5 µM [inhibitor, single point] |
| CCN(C(=O)C1CCN(S(=O)(=O)c2ccc3c(c2)oc(=O)n3C)CC1)c1cccc(C)c1 | inconclusive: 9.28 µM [inhibitor, single point] |
| COc1cccc(C(=O)NNC2OC(CO)C(O)C2O)c1 (stereo not drawn) | inactive |
| Cc1ccc(C)c(S(=O)(=O)NCc2ccc(C(=O)NCc3ccco3)cc2)c1 | active: 9.28 µM |
| Cc1cccc(-c2n[nH]c([N+](=O)[O-])n2)c1 | inconclusive: 0.0738 µM [inhibitor, full curve, poor fit] |
| COc1ccc(-c2cc(C(=O)NCCCN3CCOCC3)c3ccccc3n2)cc1OC | inconclusive: 16.5 µM [inhibitor, partial curve, poor fit] |
| OCCN1CCN(C(=S)Nc2ccc(Oc3ccccc3)cc2)CC1 | inconclusive: 4.15 µM [inhibitor, single point] |
| CN(C)c1ccnc(Nc2ccc(O)cc2)c1C#N | active: 10.4 µM |
| COc1cc(/C=N/NC(=O)CC#N)ccc1Oc1nc(Cl)ncc1F | inconclusive: 2.33 µM [inhibitor, single point] |
| COC(=O)c1nc(Cl)c(Cl)c(N)c1Cl | inactive |
| CCCCNC(=O)CCc1nc2cccnc2n1Cc1ccccc1 | inactive |
| COc1ccc(S(=O)(=O)Nc2cc(S(=O)(=O)c3ccccc3)c(O)cc2C)cc1 | inconclusive: 1.65 µM [inhibitor, partial curve] |
| Cc1nc(N2CCN(C)CC2)c2sc(=S)n(C)c2n1 | active: 9.28 µM |
| C#CCOCCOCCOCCNc1nc(N2CCN(C(=O)CCCCCCCCCCNC(=O)Cn3cc(C[C@@H](C)O)nn3)CC2)nc(N2CCN(C(=O)CCCCCCCCCCNC(=O)[C@H](CCCCN)n3cc(CCCC(=O)O)nn3)CC2)n1 | inconclusive: 10.4 µM [inhibitor, single point] |
